Laboratory results: PubChem BioAssay AID1224830 (NIAID, 2016)
The whole screen tested about 18,000 reagents; this is a random part of them. In the full data, about 2,900 (16%) are marked active. 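Calls are made per well; low scores hint the gene aids the LPS response, high scores that it dampens it.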 The numbers tell different reagents against one gene apart. Repeated entries: four replicate wells of each siRNA pool.

Screen: 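Genes whose knock-down alters the TNF-alpha reporter response to LPS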 (primary screen)
System: human THP-1 monocytic leukaemia cells, TNF dual-luciferase reporter clone, PMA-differentiated to macrophage-like cells
Knock-down reagent: siRNA pool against human genes, 50 nM
Timing: LPS for 4 h, given about 3 days after siRNA transfection
Conditions: bacterial LPS (TLR4 ligand), 10 ng/ml
Detection: 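TNF firefly reporter luminescence divided by renilla, normalised to the plate median, then turned into a robust z-score for each replicate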
Reading the numbers: TNF reporter robust z-score: higher = stronger TNF reporter response to LPS
Hit rule: 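a well is active when its z-score exceeds 2.8 or falls below -1.5; control wells carry no call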

| gene | reagent | TNF reporter robust z-score | Call |
| --- | --- | --- | --- |
| OR51F2 | 1 | -1.32 | inactive |
| OR51F2 | 1 | -0.6 | inactive |
| OR51F2 | 1 | -0.76 | inactive |
| OR51F2 | 1 | -0.38 | inactive |
| APLP1 | 1 | 0.97 | inactive |
| APLP1 | 1 | 0.96 | inactive |
| APLP1 | 1 | 0.5 | inactive |
| APLP1 | 1 | 0.65 | inactive |
| SCFD2 | 1 | 1.09 | inactive |
| SCFD2 | 1 | -0.27 | inactive |
| SCFD2 | 1 | -0.39 | inactive |
| SCFD2 | 1 | 0.79 | inactive |
| ACTR3B | 1 | -0.24 | inactive |
| ACTR3B | 1 | -0.09 | inactive |
| ACTR3B | 1 | -0.92 | inactive |
| ACTR3B | 1 | -0.71 | inactive |
| KRTAP5-9 | 1 | 0.94 | inactive |
| KRTAP5-9 | 1 | -2.19 | active |
| KRTAP5-9 | 1 | 1.28 | inactive |
| KRTAP5-9 | 1 | 4.46 | active |
| OR1B1 | 1 | 0.44 | inactive |
| OR1B1 | 1 | 0.97 | inactive |
| OR1B1 | 1 | 0.81 | inactive |
| OR1B1 | 1 | 0.5 | inactive |
| ACVR2A | 1 | -0.91 | inactive |
| ACVR2A | 1 | 0.13 | inactive |
| ACVR2A | 1 | -1.03 | inactive |
| ACVR2A | 1 | 0.6 | inactive |
| TM6SF2 | 1 | 1.04 | inactive |
| TM6SF2 | 1 | 1.43 | inactive |
| TM6SF2 | 1 | -0.22 | inactive |
| TM6SF2 | 1 | 0.85 | inactive |
| ZBED10P | 1 | -0.47 | inactive |
| ZBED10P | 1 | -0.02 | inactive |
| ZBED10P | 1 | 0.37 | inactive |
| ZBED10P | 1 | 0.51 | inactive |
| COPS4 | 1 | 0.11 | inactive |
| COPS4 | 1 | 0.97 | inactive |
| COPS4 | 1 | 0.54 | inactive |
| COPS4 | 1 | -0.07 | inactive |
| SLC36A3 | 1 | -1.74 | active |
| SLC36A3 | 1 | -1.22 | inactive |
| SLC36A3 | 1 | -2 | active |
| SLC36A3 | 1 | -1.46 | inactive |
| BTN2A2 | 1 | -0.04 | inactive |
| BTN2A2 | 1 | 0.71 | inactive |
| BTN2A2 | 1 | -0.53 | inactive |
| BTN2A2 | 1 | 0.5 | inactive |
| NSUN4 | 1 | -0.18 | inactive |
| NSUN4 | 1 | -0.02 | inactive |
| NSUN4 | 1 | 0.02 | inactive |
| NSUN4 | 1 | -0.59 | inactive |
| ZXDA | 1 | 0.96 | inactive |
| ZXDA | 1 | 0.78 | inactive |
| ZXDA | 1 | 0.39 | inactive |
| ZXDA | 1 | 1.76 | inactive |
| FAM78B | 1 | -1.23 | inactive |
| FAM78B | 1 | -1.3 | inactive |
| FAM78B | 1 | -0.96 | inactive |
| FAM78B | 1 | -1.04 | inactive |
| C10orf90 | 1 | 0.7 | inactive |
| C10orf90 | 1 | 0.18 | inactive |
| C10orf90 | 1 | 1.11 | inactive |
| C10orf90 | 1 | 1.41 | inactive |
| NEBL | 1 | -0.64 | inactive |
| NEBL | 1 | -0.99 | inactive |
| NEBL | 1 | -0.7 | inactive |
| NEBL | 1 | -0.45 | inactive |
| NEBL | 2 | 1.02 | inactive |
| NEBL | 2 | -0.67 | inactive |
| NEBL | 2 | -0.41 | inactive |
| NEBL | 2 | 0.91 | inactive |
| TP53AIP1 | 1 | 1.25 | inactive |
| TP53AIP1 | 1 | 1.29 | inactive |
| TP53AIP1 | 1 | 1.27 | inactive |
| TP53AIP1 | 1 | -0.86 | inactive |
| FANCD2 | 1 | 0.7 | inactive |
| FANCD2 | 1 | -0.79 | inactive |
| FANCD2 | 1 | -0.44 | inactive |
| FANCD2 | 1 | 0.8 | inactive |
| TCIRG1 | 1 | -1.16 | inactive |
| TCIRG1 | 1 | 0.07 | inactive |
| TCIRG1 | 1 | -1.06 | inactive |
| TCIRG1 | 1 | -0.7 | inactive |
| HLA-DQB1 | 1 | -0.42 | inactive |
| HLA-DQB1 | 1 | -0.51 | inactive |
| HLA-DQB1 | 1 | -1.41 | inactive |
| HLA-DQB1 | 1 | 0.28 | inactive |
| CARD18 | 1 | -0.17 | inactive |
| CARD18 | 1 | 1.6 | inactive |
| CARD18 | 1 | 0.43 | inactive |
| CARD18 | 1 | 0.45 | inactive |
| MZT1 | 1 | 0.93 | inactive |
| MZT1 | 1 | 0.02 | inactive |
| MZT1 | 1 | -0.44 | inactive |
| MZT1 | 1 | -0.14 | inactive |
| KGD4 | 1 | -0.7 | inactive |
| KGD4 | 1 | -0.65 | inactive |
| KGD4 | 1 | -0.97 | inactive |
| KGD4 | 1 | -0.63 | inactive |
| ORC1 | 1 | -0.71 | inactive |
| ORC1 | 1 | 0.19 | inactive |
| ORC1 | 1 | 1.01 | inactive |
| ORC1 | 1 | -0.63 | inactive |
| MED27 | 1 | 1.04 | inactive |
| MED27 | 1 | 1.89 | inactive |
| MED27 | 1 | 0.94 | inactive |
| MED27 | 1 | 1.14 | inactive |
| TTC5 | 1 | 0.59 | inactive |
| TTC5 | 1 | -0.27 | inactive |
| TTC5 | 1 | 1.34 | inactive |
| TTC5 | 1 | 0.1 | inactive |
